Data: PubChem BioAssay AID2685 (National Center for Advancing Translational Sciences (NCATS), 2010)
The other results are listed elsewhere or left out. Further columns of the screen follow, without active or inactive calls. Most of these compounds were active or inconclusive in the main read-out, so they are no random draw. The note in brackets gives the kind of curve behind each potency; many fits are weak.

Assay: qHTS Assay for Lipid Storage Modulators in Drosophila S3 Cells;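 as to cell number change: cells counted by Cell Tracker Red CMTPX staining in the red channel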
Settings: BODIPY lipid droplet fluorescence, 18-24 h
Outline: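 Drosophila S3 cells loaded with oleic acid (400 uM, as added) and compounds at several concentrations; lipid droplets imaged by 488-nm laser-scanning cytometry, 500–530 nm intensity and object ratio to cell channel. Percent activity normalized to 20 uM Triacsin C.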

O=C(CSc1ncnc2sccc12)N1CCN(C(=O)c2cccs2)CC1
cell number change (measured here: cell count max response, cells fed with added oleic acid): -31.8% | AC50 (measured here: cell number channel AC50, cells fed with added oleic acid): 4.61 µM [falling, full curve, poor fit] | AC50 (measured here: lipid fluorescence (Fed channel) AC50, cells fed with added oleic acid): 5.17 µM [falling, full curve, poor fit]
